Experimental data taken from the supplement of paper PMC10849652.
Some of the results follow. Residues, ends and D or L forms follow the SMILES beside them. *: point of attachment. Cbz = O=C(OCc1ccccc1)*

By UniProt entry, the sequences of proteins in these tests, tags left out. Where a name states a change or a piece, a line headed by the entry shows the natural chain unless it says otherwise.
UniProt Q8WVD3: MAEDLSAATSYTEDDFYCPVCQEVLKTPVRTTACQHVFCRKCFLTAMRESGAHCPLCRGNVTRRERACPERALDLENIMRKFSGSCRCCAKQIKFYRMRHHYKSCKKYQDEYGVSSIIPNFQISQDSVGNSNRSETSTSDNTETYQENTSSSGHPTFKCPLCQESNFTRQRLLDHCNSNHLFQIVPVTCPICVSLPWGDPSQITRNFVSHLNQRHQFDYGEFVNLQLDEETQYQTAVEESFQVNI
UniProt P48382: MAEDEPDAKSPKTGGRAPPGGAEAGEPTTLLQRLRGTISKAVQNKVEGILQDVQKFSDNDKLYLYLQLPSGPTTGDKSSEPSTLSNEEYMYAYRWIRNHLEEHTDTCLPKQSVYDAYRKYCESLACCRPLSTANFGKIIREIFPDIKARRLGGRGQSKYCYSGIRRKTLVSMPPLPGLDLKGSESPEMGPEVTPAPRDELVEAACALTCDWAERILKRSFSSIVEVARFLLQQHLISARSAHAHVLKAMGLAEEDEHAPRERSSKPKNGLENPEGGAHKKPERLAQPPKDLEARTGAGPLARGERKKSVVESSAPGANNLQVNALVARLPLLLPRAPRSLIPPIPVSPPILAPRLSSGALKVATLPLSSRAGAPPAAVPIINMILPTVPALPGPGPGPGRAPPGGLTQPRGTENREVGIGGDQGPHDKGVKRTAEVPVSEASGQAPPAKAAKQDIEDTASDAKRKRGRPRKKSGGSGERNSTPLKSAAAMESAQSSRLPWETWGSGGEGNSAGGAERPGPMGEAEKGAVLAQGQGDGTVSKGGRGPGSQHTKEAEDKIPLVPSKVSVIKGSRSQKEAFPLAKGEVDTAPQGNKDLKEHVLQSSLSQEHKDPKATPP
UniProt Q8IYW5, whole entry, looked up: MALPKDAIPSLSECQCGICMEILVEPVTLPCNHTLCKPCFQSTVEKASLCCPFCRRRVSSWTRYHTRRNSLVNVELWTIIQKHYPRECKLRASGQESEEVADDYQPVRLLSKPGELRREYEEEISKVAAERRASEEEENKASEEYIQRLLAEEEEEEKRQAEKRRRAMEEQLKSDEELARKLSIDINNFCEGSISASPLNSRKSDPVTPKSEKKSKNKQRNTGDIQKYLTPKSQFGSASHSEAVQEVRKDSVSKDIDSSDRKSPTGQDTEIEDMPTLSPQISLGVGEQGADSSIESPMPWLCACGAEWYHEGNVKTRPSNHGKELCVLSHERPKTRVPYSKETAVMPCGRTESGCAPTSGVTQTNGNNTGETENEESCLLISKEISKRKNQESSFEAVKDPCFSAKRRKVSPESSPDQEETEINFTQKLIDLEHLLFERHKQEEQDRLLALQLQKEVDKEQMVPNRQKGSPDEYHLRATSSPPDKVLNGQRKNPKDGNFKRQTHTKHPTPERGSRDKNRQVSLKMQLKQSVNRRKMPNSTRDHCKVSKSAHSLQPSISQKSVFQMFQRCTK
UniProt Q04864: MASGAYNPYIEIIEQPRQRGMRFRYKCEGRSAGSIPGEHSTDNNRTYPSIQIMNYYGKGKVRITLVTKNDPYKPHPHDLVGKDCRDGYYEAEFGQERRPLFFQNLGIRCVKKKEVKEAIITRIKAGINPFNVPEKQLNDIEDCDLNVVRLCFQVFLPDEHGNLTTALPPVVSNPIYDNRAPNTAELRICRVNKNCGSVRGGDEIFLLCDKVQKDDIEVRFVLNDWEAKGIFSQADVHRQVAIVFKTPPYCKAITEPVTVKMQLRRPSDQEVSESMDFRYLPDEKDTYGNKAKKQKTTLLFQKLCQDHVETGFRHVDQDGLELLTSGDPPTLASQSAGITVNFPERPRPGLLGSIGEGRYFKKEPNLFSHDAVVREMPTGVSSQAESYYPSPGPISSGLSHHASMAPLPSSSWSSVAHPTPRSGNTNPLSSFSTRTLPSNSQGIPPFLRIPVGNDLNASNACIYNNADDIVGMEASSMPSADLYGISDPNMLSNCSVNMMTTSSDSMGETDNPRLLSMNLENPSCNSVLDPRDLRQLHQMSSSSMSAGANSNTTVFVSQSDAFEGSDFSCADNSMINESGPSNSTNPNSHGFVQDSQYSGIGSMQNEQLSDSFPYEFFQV
UniProt Q9NTX7: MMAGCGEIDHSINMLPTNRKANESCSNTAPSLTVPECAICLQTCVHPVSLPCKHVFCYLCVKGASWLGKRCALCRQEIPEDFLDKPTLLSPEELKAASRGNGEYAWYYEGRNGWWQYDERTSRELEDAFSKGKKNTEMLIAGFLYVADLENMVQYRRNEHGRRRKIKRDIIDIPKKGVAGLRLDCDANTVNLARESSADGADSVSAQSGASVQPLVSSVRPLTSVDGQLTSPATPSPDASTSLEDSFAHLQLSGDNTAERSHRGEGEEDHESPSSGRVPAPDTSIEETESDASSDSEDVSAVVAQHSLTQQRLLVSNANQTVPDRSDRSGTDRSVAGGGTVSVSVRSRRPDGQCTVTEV
UniProt Q99496: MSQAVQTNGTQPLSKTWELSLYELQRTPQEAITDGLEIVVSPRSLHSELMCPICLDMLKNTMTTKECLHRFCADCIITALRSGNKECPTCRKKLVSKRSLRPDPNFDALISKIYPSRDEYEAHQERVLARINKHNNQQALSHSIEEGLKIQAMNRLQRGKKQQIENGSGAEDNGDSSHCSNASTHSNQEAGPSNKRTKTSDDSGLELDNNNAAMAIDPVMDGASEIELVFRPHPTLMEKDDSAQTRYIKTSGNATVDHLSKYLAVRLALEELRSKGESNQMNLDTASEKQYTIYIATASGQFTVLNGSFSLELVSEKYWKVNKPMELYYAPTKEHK
UniProt Q5TC82: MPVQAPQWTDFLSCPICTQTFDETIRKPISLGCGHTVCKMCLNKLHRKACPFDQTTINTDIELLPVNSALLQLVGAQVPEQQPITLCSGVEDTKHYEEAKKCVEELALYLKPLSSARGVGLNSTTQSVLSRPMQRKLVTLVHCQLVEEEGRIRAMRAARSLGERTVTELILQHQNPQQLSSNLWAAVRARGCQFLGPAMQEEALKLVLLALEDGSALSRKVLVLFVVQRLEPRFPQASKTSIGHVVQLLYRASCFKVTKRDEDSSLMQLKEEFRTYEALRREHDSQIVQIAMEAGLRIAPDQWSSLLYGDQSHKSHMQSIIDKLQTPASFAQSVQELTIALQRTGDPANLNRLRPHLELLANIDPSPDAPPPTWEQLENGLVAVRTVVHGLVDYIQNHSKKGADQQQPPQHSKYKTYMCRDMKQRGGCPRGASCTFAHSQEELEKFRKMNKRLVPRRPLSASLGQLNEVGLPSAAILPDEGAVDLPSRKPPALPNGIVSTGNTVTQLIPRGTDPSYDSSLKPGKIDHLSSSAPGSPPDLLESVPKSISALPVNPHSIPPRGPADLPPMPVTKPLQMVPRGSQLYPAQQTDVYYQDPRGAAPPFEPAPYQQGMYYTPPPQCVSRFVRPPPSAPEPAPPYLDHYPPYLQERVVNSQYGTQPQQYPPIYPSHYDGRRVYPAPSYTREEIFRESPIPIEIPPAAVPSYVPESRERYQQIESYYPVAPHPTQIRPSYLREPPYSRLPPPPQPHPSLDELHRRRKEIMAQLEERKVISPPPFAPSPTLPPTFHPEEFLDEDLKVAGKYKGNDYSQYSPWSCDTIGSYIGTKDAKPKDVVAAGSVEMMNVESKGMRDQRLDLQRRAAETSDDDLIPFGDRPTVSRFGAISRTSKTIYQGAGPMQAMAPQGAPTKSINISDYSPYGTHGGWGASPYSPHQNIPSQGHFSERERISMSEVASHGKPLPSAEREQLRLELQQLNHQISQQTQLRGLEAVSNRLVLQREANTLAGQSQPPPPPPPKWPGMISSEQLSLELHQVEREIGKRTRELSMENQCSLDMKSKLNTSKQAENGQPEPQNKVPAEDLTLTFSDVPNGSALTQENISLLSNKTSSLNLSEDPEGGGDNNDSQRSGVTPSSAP
UniProt Q9Y256: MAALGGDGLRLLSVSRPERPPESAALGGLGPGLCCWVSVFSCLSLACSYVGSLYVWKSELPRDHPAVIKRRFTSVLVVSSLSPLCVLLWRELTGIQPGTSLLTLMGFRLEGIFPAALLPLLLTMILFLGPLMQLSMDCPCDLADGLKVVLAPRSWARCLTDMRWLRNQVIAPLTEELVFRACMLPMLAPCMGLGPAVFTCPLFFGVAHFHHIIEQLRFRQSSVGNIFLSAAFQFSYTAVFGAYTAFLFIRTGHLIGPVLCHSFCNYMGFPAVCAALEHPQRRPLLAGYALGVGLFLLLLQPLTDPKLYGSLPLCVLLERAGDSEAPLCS
UniProt O43566: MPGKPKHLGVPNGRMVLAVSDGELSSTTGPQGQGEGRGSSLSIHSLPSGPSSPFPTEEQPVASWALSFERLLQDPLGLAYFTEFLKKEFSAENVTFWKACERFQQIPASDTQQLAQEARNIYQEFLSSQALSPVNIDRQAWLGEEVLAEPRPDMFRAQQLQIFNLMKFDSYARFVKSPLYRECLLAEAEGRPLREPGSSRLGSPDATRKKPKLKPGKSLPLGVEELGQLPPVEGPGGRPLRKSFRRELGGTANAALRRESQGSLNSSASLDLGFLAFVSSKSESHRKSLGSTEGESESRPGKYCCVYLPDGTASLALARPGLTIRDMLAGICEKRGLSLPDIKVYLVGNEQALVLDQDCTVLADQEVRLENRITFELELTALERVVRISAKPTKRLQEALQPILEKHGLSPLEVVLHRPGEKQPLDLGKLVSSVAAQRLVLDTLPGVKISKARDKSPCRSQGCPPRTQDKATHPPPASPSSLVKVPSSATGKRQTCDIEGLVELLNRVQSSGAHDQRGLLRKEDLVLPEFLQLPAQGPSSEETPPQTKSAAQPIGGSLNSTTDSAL
UniProt Q6PCD5: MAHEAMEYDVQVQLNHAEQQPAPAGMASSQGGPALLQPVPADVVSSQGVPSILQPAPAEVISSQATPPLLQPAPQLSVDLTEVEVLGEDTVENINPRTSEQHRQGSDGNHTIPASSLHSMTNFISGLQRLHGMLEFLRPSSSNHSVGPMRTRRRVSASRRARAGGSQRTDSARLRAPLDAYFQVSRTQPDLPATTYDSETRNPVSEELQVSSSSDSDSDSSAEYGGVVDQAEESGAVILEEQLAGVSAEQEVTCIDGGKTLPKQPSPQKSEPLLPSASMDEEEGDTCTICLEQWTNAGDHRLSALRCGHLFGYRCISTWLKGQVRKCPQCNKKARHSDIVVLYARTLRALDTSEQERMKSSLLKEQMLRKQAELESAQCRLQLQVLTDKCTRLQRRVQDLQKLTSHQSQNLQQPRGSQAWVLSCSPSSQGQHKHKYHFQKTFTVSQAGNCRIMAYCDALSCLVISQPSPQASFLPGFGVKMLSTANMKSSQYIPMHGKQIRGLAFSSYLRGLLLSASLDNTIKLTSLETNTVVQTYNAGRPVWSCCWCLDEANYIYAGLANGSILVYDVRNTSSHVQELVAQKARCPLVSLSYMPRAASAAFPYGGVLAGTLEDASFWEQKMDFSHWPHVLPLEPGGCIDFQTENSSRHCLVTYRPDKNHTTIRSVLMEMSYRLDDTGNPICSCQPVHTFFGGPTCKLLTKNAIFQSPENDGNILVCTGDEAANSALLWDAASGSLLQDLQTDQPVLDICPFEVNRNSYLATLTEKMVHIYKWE
UniProt Q92546: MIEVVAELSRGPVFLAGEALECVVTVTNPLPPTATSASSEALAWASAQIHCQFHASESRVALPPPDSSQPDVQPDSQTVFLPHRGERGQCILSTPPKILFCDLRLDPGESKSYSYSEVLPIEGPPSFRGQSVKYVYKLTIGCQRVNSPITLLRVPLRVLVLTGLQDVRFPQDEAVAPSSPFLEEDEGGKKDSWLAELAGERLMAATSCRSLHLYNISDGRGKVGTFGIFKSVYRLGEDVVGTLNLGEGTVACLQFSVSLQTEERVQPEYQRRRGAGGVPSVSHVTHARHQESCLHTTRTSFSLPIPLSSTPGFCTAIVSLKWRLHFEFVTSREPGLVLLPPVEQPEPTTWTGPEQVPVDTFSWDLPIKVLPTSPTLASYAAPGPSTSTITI
UniProt Q9BVS4: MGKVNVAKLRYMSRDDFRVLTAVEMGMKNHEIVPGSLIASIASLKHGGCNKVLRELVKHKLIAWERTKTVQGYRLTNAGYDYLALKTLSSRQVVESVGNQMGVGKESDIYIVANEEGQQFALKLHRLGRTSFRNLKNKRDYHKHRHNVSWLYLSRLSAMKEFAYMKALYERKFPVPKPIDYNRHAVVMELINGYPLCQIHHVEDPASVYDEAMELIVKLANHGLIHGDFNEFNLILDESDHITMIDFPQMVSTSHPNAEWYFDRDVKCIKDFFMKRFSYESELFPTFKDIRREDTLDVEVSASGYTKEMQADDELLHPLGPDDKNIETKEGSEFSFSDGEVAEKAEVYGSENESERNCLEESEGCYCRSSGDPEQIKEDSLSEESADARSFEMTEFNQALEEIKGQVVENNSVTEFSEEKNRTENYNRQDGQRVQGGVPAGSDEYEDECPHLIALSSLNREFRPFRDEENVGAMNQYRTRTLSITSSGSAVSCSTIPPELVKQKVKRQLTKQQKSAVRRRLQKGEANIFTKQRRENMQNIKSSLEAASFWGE

How the values were obtained:
Experiment in all cases: log2 fold change, soluble protein after heating vs DMSO (PISA); higher = thermal stabilisation; K562 cells, 10 uM, 30 min; active = over 0.2 and 3.5 SD of the protein, either way, in both replicates (recomputed)
erlotinib = compound: C#Cc1cccc(Nc2ncnc3cc(OCCOC)c(OCCOC)cc23)c1 [erlotinib]
Procedure, shortened: (§1)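 K562 cells at 2×10^6 cells/mL were given 10 μM compound for 30 min. Aliquots then went through 3 min of heating across 48°C-58°C, were pooled, and were extracted in PBS with 0.5% NP-40 at 4°C, and the supernatant after 21,000xg for 90 min was quantified by TMTpro 16plex LC-MS/MS with channel sums equalised. Thermal stability relative to control samples, from duplicates, is given as log2 fold change.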

[1] = compound: C/C(=N\NC(=O)C1=CC(=CC=C1)S(=O)(=O)N2CCOCC2)/C3=C(C=CC(=C3)Cl)O
Procedure, shortened: as §1

[2] = compound: C1=CC(=C(C=C1Cl)C2=NC3=NC=CN=C3C(=N2)NC4=CC=NC=C4)F
Procedure, shortened: as §1

[3] = compound: C1=CC(=CC=C1C2=NC3=C(N2)C=C(C=C3)C(=O)N)OC4=CC=C(C=C4)Cl
Procedure, shortened: as §1

[4] = compound: C1=CC2=C(C=CC(=C2)/C=C\3/C(=O)NC(=NCC4=CC=CS4)S3)N=C1
Procedure, shortened: as §1

[5] = compound: C1=CC2=NC=CN=C2C=C1/C=C/3\C(=O)NC(=O)S3
Procedure, shortened: as §1

[6] = compound: C1=CC=C2C(=C1)C3=NNC4=CC=CC(=C43)C2=O
Procedure, shortened: as §1

[7] = compound: C1CCN(C1)C(=O)NC2=CC=CC(=C2)NC3=NC=C(C(=N3)NCCC4=CN=CN4)Br
Procedure, shortened: as §1

[8] = compound: C1CN(CCC1(CC2=CC=C(C=C2)Cl)N)C3=NC=NC4=C3C=CN4
Procedure, shortened: as §1

ibrutinib = compound: C=CC(=O)N1CCC[C@@H](n2nc(-c3ccc(Oc4ccccc4)cc3)c3c(N)ncnc32)C1 [ibrutinib]
Procedure, shortened: as §1

[9] = compound: CC(=O)c1cnc2ccc(-c3cc(Cl)c(O)c(Cl)c3)nc2c1N[C@H]1CC[C@H](CN(C)C)CC1
Procedure, shortened: as §1

[10] = compound: CC(C)(O)CC(=O)NCCn1ccc2ncnc(Nc3ccc(Oc4cccc(C(F)(F)F)c4)c(Cl)c3)c21
Procedure, shortened: as §1

[11] = compound: CC(C)C1=C2N=C(C=C(N2N=C1)NCC3=CC=CC=C3)NCCCCCCN
Procedure, shortened: as §1

[12] = compound: CC1=C(C(CC(=O)N1)C2=CC=C(C=C2)C(F)(F)F)C(=O)NC3=C(C=C4C(=C3)C=NN4)F
Procedure, shortened: as §1

[13] = compound: CC1=C(C2=C(C=C1)C(=O)C3=CC=CC=C3N2CCCN)C
Procedure, shortened: as §1

[14] = compound: C1=CC=C(C=C1)C2=NC(=C(N2)C3=CC=NC=C3)C4=CC(=C(C=C4)Cl)O
Procedure, shortened: as §1

IRAK-1-4 Inhibitor I = compound: C1COCCN1CCN2C3=CC=CC=C3N=C2NC(=O)C4=CC(=CC=C4)[N+](=O)[O-] [IRAK-1-4 Inhibitor I]
Procedure, shortened: as §1

ralimetinib = compound: CC(C)(C)Cn1c(N)nc2ccc(-c3[nH]c(C(C)(C)C)nc3-c3ccc(F)cc3)nc21 [ralimetinib]
Procedure, shortened: as §1

[15] = compound: CC(C)C[C@@H](C=O)NC(=O)[C@H](CC(C)C)NC(=O)[C@H](CC(C)C)NC(=O)OCc1ccccc1
Procedure, shortened: as §1

pinometostat = compound: CC(C)N(C[C@H]1O[C@@H](n2cnc3c(N)ncnc32)[C@H](O)[C@@H]1O)[C@H]1C[C@@H](CCc2nc3cc(C(C)(C)C)ccc3[nH]2)C1 [pinometostat]
Procedure, shortened: as §1

Target | log2 fold change (erlotinib) | log2 fold change [1] | log2 fold change [2] | log2 fold change [3] | log2 fold change [4] | log2 fold change [5] | log2 fold change [6] | log2 fold change [7] | log2 fold change [8] | log2 fold change (ibrutinib) | log2 fold change [9] | log2 fold change [10] | log2 fold change [11] | log2 fold change [12] | log2 fold change [13] | log2 fold change [14] | log2 fold change (IRAK-1-4 Inhibitor I) | log2 fold change (ralimetinib) | log2 fold change [15] | log2 fold change (pinometostat)
RNF138 (UniProt Q8WVD3) | inactive: 0.156 | inactive: -0.136 | inactive: 0.038 | inactive: 0.036 | inactive: -0.044 | inactive: 0.019 | inactive: 0.135 | inactive: -0.024 | inactive: 0.109 | inactive: -0.032 | inactive: -0.31 | inactive: -0.036 | inactive: -0.074 | inactive: 0.098 | inactive: -0.092 |  |  |  |  | 
RFX5 (UniProt P48382) | inactive: 0.047 | inactive: 0.115 | inactive: 0.294 | inactive: 0.078 | inactive: -0.119 | inactive: 0.045 | inactive: -0.049 |  |  | inactive: 0.017 | inactive: 0.105 | inactive: 0.366 | inactive: -0.076 | inactive: -0.016 |  | inactive: -0.052 | inactive: 0.027 | inactive: 0.147 | inactive: 0.016 | inactive: 0.066
RICTOR isoform 3 (UniProt Q6R327) | inactive: 0.116 | inactive: 0.025 | inactive: -0.067 | inactive: 0.36 | inactive: -0.031 |  | inactive: -0.136 | inactive: 0.054 | inactive: -0.001 |  | active: 0.866 | inactive: -0.084 | inactive: -0.584 |  | inactive: -0.223 |  |  |  |  | 
RNF168 (UniProt Q8IYW5) | inactive: -0.066 | inactive: 0.141 |  | inactive: -0.02 | inactive: 0.149 | inactive: -0.023 | inactive: 0.012 | inactive: -0.043 | inactive: -0.028 | inactive: -0.01 | inactive: -0.124 |  | inactive: -0.03 | inactive: -0.143 | inactive: -0.057 | inactive: 0.101 |  | inactive: 0.084 | inactive: 0.013 | 
REL (UniProt Q04864) | inactive: 0.076 | inactive: -0.013 | inactive: -0.007 | inactive: 0.003 | inactive: 0.024 | inactive: -0.037 | inactive: -0.013 | inactive: -0.082 | inactive: 0.01 | inactive: -0.095 | inactive: -0.017 | inactive: -0.093 | inactive: -0.074 |  | inactive: 0.005 | inactive: -0.029 | inactive: -0.046 | inactive: 0.037 | inactive: 0.062 | inactive: 0.089
RNF146 (UniProt Q9NTX7) | inactive: -0.03 | inactive: 0.025 | inactive: 0.093 | inactive: 0.01 | inactive: -0.054 | inactive: 0 | inactive: -0.111 | inactive: -0.03 | inactive: 0.03 | inactive: -0.012 | inactive: 0.018 | inactive: -0.18 | inactive: -0.025 |  | inactive: 0.004 | inactive: -0.155 | inactive: 0.087 | inactive: -0.048 | inactive: 0.031 | inactive: 0.062
RNF2 (UniProt Q99496) | inactive: -0.014 | inactive: 0.116 | inactive: -0.013 | inactive: -0.231 | inactive: -0.057 | inactive: -0.004 | inactive: -0.053 | inactive: -0.103 | inactive: -0.006 | inactive: 0.086 | inactive: 0.001 | inactive: -0.065 | inactive: 0.091 |  | inactive: -0.058 |  | inactive: -0.024 |  |  | inactive: 0.066
RC3H1 (UniProt Q5TC82) | inactive: 0.007 | inactive: 0.018 | inactive: -0.046 | inactive: 0.069 | inactive: -0.189 |  | inactive: 0 | inactive: 0.022 | inactive: -0.007 |  | inactive: -0.41 | inactive: -0.042 | inactive: 0.013 |  | inactive: -0.082 |  | inactive: 0.051 |  |  | inactive: 0.059
RCE1 (UniProt Q9Y256) | inactive: 0.02 | inactive: 0.036 | inactive: 0.003 | inactive: -0.057 | inactive: 0.054 | inactive: 0.081 | inactive: 0.03 | inactive: -0.157 | inactive: 0.149 | inactive: -0.015 | inactive: 0.041 | inactive: -0.129 | inactive: -0.254 | inactive: -0.068 | inactive: 0.007 | inactive: 0.148 |  | inactive: -0.041 | inactive: 0.045 | 
RGS14 (UniProt O43566) | inactive: 0.156 | inactive: -0.423 | inactive: -0.165 | inactive: -0.14 | inactive: 0.414 | inactive: -0.114 | inactive: -0.042 | inactive: 0.2 | inactive: -0.085 | inactive: 0 | inactive: -0.23 | inactive: 0.033 | inactive: -0.047 | inactive: 0.349 | inactive: 0.032 | inactive: -0.229 |  | inactive: 0.056 | inactive: 0.047 | 
RFWD3 (UniProt Q6PCD5) | inactive: 0.153 | inactive: 0.053 | inactive: 0.005 | inactive: -0.006 | inactive: 0.015 |  | inactive: 0.14 |  |  |  | inactive: 0.084 | inactive: 0.097 | inactive: -0.054 |  |  |  |  |  |  | 
RBP4 (UniProt P02753) | inactive: -0.226 | inactive: 0.285 |  | inactive: 0.165 | inactive: 0.007 | inactive: 0.327 | inactive: -0.08 | inactive: 0.186 | inactive: 0.173 | inactive: -0.101 | inactive: 0.134 |  | inactive: 0.125 |  | inactive: -0.491 | inactive: 0.01 | inactive: 0.042 | inactive: 0.011 | inactive: 0.077 | inactive: 0.16
RDH10 (UniProt Q8IZV5) | inactive: 0.122 | inactive: 0.065 | inactive: 0.024 | inactive: 0.003 | inactive: 0.204 | inactive: -0.035 | inactive: 0.039 | inactive: -0.008 | inactive: 0.235 | inactive: 0.159 | inactive: -0.07 | inactive: 0.075 | inactive: 0.069 |  | inactive: 0.007 | inactive: 0.077 | inactive: 0.076 | inactive: 0.008 | inactive: -0.043 | inactive: -0.018
RCC1 isoform 2 (UniProt P18754) | inactive: 0.158 | inactive: 0.195 | inactive: 0.11 | inactive: 0.03 | inactive: 0.105 | inactive: -0.004 | inactive: 0.018 | inactive: -0.09 | inactive: 0.011 | inactive: -0.04 | inactive: -0.14 | inactive: -0.16 | inactive: -0.094 |  | active: -0.899 | inactive: -0.003 | inactive: -0.026 | inactive: 0 | inactive: 0.041 | inactive: 0.023
RGP1 (UniProt Q92546) | inactive: 0.145 | inactive: -0.002 | inactive: 0.111 | inactive: 0.008 | inactive: 0.326 | inactive: 0.096 | inactive: -0.017 | inactive: 0.232 | inactive: 0.068 | inactive: 0.081 | inactive: -0.072 | inactive: -0.007 | inactive: -0.114 | inactive: -0.046 | inactive: 0.205 | inactive: -0.111 |  | inactive: -0.012 | inactive: 0.385 | 
RIOK2 (UniProt Q9BVS4) | inactive: -0.081 | inactive: -0.064 | inactive: -0.149 | inactive: 0.097 | inactive: -0.043 | inactive: -0.055 | inactive: 0.055 | inactive: 0.035 | inactive: -0.209 | inactive: 0.013 | active: 0.465 | inactive: 0 | inactive: -0.014 |  | inactive: -0.068 | inactive: -0.01 | inactive: -0.061 | inactive: 0.119 | inactive: 0.084 | inactive: 0.132
RBM8A (UniProt Q9Y5S9) | inactive: -0.021 | inactive: -0.014 | inactive: 0.012 | inactive: -0.008 | inactive: -0.076 | inactive: 0.024 | inactive: -0.035 | inactive: 0.025 | inactive: 0.003 | inactive: -0.017 | inactive: 0.127 | inactive: -0.002 | inactive: 0.128 |  | inactive: 0.027 | inactive: -0.069 | inactive: -0.027 | inactive: -0.015 | inactive: 0.024 | inactive: -0.015

Part of the list above, as a markdown table.

| Target | log2 fold change (erlotinib) | log2 fold change [1] | log2 fold change [2] | log2 fold change [3] | log2 fold change [4] | log2 fold change [5] | log2 fold change [6] | log2 fold change [7] | log2 fold change [8] | log2 fold change (ibrutinib) | log2 fold change [9] | log2 fold change [10] | log2 fold change [11] | log2 fold change [12] | log2 fold change [13] | log2 fold change [14] | log2 fold change (IRAK-1-4 Inhibitor I) | log2 fold change (ralimetinib) | log2 fold change [15] | log2 fold change (pinometostat) |
| --- | --- | --- | --- | --- | --- | --- | --- | --- | --- | --- | --- | --- | --- | --- | --- | --- | --- | --- | --- | --- |
| RNF168 (UniProt Q8IYW5) | inactive: -0.066 | inactive: 0.141 |  | inactive: -0.02 | inactive: 0.149 | inactive: -0.023 | inactive: 0.012 | inactive: -0.043 | inactive: -0.028 | inactive: -0.01 | inactive: -0.124 |  | inactive: -0.03 | inactive: -0.143 | inactive: -0.057 | inactive: 0.101 |  | inactive: 0.084 | inactive: 0.013 |  |
| REL (UniProt Q04864) | inactive: 0.076 | inactive: -0.013 | inactive: -0.007 | inactive: 0.003 | inactive: 0.024 | inactive: -0.037 | inactive: -0.013 | inactive: -0.082 | inactive: 0.01 | inactive: -0.095 | inactive: -0.017 | inactive: -0.093 | inactive: -0.074 |  | inactive: 0.005 | inactive: -0.029 | inactive: -0.046 | inactive: 0.037 | inactive: 0.062 | inactive: 0.089 |
| RNF146 (UniProt Q9NTX7) | inactive: -0.03 | inactive: 0.025 | inactive: 0.093 | inactive: 0.01 | inactive: -0.054 | inactive: 0 | inactive: -0.111 | inactive: -0.03 | inactive: 0.03 | inactive: -0.012 | inactive: 0.018 | inactive: -0.18 | inactive: -0.025 |  | inactive: 0.004 | inactive: -0.155 | inactive: 0.087 | inactive: -0.048 | inactive: 0.031 | inactive: 0.062 |
| RNF2 (UniProt Q99496) | inactive: -0.014 | inactive: 0.116 | inactive: -0.013 | inactive: -0.231 | inactive: -0.057 | inactive: -0.004 | inactive: -0.053 | inactive: -0.103 | inactive: -0.006 | inactive: 0.086 | inactive: 0.001 | inactive: -0.065 | inactive: 0.091 |  | inactive: -0.058 |  | inactive: -0.024 |  |  | inactive: 0.066 |
